Laboratory results: patent US10788499B2 (University of Washington, priority 2015, dated 2020)

Experiment: peptide synthesis
Conditions: lipidation step

N-Ac-Ala-Leu-Leu-Pro-Phe-Gly-Cys-S—COC11H23 (ALLPFGC; N-acetyl, S-palmitoyl cysteine; printed: Ala-Leu-Leu-Pro-Phe-Gly-Cys-)
step yield: 69%
